Results published in PMC9225179, “RNA Polymerase II Transcription in Pneumocystis: TFIIB from Pneumocystis carinii Can Replace the Transcriptional Functions of Fission Yeast Schizosaccharomyces pombe TFIIB In Vivo and In Vitro” (International Journal of Molecular Sciences, 2022).
These are yes or no findings as the source states them, for the method shown. A result given as binding can be weak or reduced; the word gives no strength. Tags and fused reporters may be left off the sequences shown.

Biological target: T1, Schizosaccharomyces pombe TATA-binding protein (S. pombe) (UniProt P17871)
T1 sequence: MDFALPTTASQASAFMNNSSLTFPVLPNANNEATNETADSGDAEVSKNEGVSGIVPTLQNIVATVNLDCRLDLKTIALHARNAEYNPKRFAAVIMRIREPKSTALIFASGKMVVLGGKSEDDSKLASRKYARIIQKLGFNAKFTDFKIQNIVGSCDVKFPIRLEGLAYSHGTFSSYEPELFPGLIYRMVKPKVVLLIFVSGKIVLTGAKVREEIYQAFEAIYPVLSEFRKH
Assay: native gel or EMSA; TBP, TFIIB (20 ng each), TFIIF (20 or 40 ng) and RNAPII (100 ng) on 32P-labelled Ad-MLP TATA box probe; 20 mM HEPES pH 7.9, 50 mM KCl, 5 mM MgCl2; 15 min at 30 °C; both purified

Pneumocystis carinii TFIIB
binding: binds
